Publication doi:10.1101/2025.03.11.642660
Results are given in words; binding and its absence hold for the method and conditions named. Binding seen in cells or lysates may run through a third protein. Some binding calls cover weakened binding; strength is not graded here.

Chains of the proteins cited; added tags and fusions are not shown. Residues count along the entry.
UniProt Q99836: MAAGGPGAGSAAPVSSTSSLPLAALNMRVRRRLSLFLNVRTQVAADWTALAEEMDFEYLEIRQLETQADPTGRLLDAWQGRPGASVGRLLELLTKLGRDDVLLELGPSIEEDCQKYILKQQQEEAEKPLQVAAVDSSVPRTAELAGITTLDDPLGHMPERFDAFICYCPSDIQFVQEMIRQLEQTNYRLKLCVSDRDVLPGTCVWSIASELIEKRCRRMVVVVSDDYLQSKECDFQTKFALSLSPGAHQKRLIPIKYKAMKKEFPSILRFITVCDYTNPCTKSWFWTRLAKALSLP
UniProt O00206, residues 24-839: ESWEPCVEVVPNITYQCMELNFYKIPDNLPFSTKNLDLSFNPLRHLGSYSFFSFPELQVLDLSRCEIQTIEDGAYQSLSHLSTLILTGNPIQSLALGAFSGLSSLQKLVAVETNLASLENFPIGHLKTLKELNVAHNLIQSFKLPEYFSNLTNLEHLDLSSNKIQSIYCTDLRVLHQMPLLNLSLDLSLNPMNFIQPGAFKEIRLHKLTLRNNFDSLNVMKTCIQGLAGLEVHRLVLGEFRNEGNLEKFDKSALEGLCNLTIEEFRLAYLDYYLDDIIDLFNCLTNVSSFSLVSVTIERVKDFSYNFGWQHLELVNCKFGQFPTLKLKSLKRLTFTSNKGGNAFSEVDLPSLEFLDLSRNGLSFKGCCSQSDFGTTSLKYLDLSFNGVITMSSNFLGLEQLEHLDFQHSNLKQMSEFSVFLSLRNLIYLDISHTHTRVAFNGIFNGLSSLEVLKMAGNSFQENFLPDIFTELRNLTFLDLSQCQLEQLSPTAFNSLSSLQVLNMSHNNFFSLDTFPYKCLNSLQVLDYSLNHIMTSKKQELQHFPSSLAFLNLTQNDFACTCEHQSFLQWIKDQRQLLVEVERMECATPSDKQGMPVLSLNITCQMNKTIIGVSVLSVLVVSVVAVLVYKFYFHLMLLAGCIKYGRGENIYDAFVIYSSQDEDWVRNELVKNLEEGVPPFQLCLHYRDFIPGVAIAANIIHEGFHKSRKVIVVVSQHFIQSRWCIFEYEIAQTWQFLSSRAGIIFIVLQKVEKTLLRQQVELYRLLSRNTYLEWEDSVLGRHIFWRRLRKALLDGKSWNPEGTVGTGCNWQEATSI

Target: MyD88 (human (endogenous in THP1)) (UniProt Q99836)
Test: co-IP

- binding: binds
Substance: TLR4 (from UniProt O00206 24-839) (receptor)
